For five molecules, binding results are on record in article PMC9603860.

To fix the notation:
T1: USP48 (endogenous retinal USP48) (mouse (endogenous in retina)) (UniProt Q3V0C5)
T1 sequence: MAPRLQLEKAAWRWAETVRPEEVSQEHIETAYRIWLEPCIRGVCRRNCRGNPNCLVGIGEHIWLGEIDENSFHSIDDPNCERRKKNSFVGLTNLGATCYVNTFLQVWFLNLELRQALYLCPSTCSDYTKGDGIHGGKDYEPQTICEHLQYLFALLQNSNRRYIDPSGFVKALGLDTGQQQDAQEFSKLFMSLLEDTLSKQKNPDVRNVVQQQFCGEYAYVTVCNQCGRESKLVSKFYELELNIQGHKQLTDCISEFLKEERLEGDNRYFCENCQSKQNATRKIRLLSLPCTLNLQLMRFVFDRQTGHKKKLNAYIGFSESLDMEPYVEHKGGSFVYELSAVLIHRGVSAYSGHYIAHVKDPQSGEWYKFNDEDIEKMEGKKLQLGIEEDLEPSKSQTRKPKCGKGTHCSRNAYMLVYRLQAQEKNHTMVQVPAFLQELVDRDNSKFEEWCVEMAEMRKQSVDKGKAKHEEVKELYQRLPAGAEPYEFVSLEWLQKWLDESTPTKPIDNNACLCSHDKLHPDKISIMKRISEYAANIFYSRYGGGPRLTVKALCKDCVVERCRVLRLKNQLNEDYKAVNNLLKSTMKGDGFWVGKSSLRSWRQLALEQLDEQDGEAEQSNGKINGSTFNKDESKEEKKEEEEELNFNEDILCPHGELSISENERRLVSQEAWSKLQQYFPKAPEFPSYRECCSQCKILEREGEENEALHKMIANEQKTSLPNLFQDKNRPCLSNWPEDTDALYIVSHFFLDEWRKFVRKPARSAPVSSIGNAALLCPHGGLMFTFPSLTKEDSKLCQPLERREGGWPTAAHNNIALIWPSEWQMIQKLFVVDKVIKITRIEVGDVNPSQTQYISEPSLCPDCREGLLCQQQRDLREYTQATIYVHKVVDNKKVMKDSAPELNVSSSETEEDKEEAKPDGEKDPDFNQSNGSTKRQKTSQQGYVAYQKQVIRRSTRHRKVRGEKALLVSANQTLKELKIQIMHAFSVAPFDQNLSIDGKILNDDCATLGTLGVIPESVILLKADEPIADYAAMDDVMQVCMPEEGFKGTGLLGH

B1: Peripherin 2 (protein, UniProt P15499 1-346)
chain: MALLKVKFDQKKRVKLAQGLWLMNWLSVLAGIVLFSLGLFLKIELRKRSEVMNNSESHFVPNSLIGVGVLSCVFNSLAGKICYDALDPAKYAKWKPWLKPYLAVCIFFNVILFLVALCCFLLRGSLESTLAYGLKNGMKYYRDTDTPGRCFMKKTIDMLQIEFKCCGNNGFRDWFEIQWISNRYLDFSSKEVKDRIKSNVDGRYLVDGVPFSCCNPSSPRPCIQYQLTNNSAHYSYDHQTEELNLWLRGCRAALLNYYSSLMNSMGVVTLLVWLFEVSITAGLRYLHTALESVSNPEDPECESEGWLLEKSVPETWKAFLESFKKLGKSNQVEAEGADAGPAPEAG
B2: Chaperonin-containing T-complex protein 1 subunit 2 (protein, UniProt P80314 1-535)
chain: MASLSLAPVNIFKAGADEERAETARLSSFIGAIAIGDLVKSTLGPKGMDKILLSSGRDAALMVTNDGATILKNIGVDNPAAKVLVDMSRVQDDEVGDGTTSVTVLAAELLREAESLIAKKIHPQTIISGWREATKAAREALLSSAVDHGSDEARFWQDLMNIAGTTLSSKLLTHHKDHFTKLAVEAVLRLKGSGNLEAIHVIKKLGGSLADSYLDEGFLLDKKIGVNQPKRIENAKILIANTGMDTDKIKIFGSRVRVDSTAKVAEIEHAEKEKMKEKVERILKHGINCFINRQLIYNYPEQLFGAAGVMAIEHADFAGVERLALVTGGEIASTFDHPELVKLGSCKLIEEVMIGEDKLIHFSGVALGEACTIVLRGATQQILDEAERSLHDALCVLAQTVKDPRTVYGGGCSEMLMAHAVTQLANRTPGKEAVAMESFAKALRMLPTIIADNAGYDSADLVAQLRAAHSEGHITAGLDMKEGTIGDMAVLGITESFQVKRQVLLSAAEAAEVILRVDNIIKAAPRKRVPDHHPC
B3: α-glucosidase II (enzyme, UniProt Q8BHN3 33-944)
chain: VDRSNFKTCDESSFCKRQRSIRPGLSPYRALLDTLQLGPDALTVHLIHEVTKVLLVLELQGLQKNMTRIRIDELEPRRPRYRVPDVLVADPPTARLSVSGRDDNSVELTVAEGPYKIILTAQPFRLDLLEDRSLLLSVNARGLMAFEHQRAPRVPQESKDPAEGNGAQPEATPGDGDKPEETQEKAEKDEPGAWEETFKTHSDSKPYGPTSVGLDFSLPGMEHVYGIPEHADSLRLKVTEGGEPYRLYNLDVFQYELNNPMALYGSVPVLLAHSFHRDLGIFWLNAAETWVDISSNTAGKTLFGKMLDYLQGSGETPQTDIRWMSESGIIDVFLMLGPSVFDVFRQYASLTGTQALPPLFSLGYHQSRWNYRDEADVLEVDQGFDDHNMPCDVIWLDIEHADGKRYFTWDPTRFPQPLNMLEHLASKRRKLVAIVDPHIKVDSGYRVHEELRNHGLYVKTRDGSDYEGWCWPGSASYPDFTNPRMRAWWSNMFSFDNYEGSAPNLYVWNDMNEPSVFNGPEVTMLKDAVHYGGWEHRDIHNIYGLYVHMATADGLIQRSGGIERPFVLSRAFFSGSQRFGAVWTGDNTAEWDHLKISIPMCLSLALVGLSFCGADVGGFFKNPEPELLVRWYQMGAYQPFFRAHAHLDTGRREPWLLASQYQDAIRDALFQRYSLLPFWYTLFYQAHKEGFPVMRPLWVQYPEDMSTFSIEDQFMLGDALLIHPVSDAGAHGVQVYLPGQEEVWYDIQSYQKHHGPQTLYLPVTLSSIPVFQRGGTIVPRWMRVRRSSDCMKDDPITLFVALSPQGTAQGELFLDDGHTFNYQTRHEFLLRRFSFSGSTLVSSSADPKGHLETPIWIERVVIMGAGKPAAVVLQTKGSPESRLSFQHDPETSVLILRKPGVSVASDWSIHLR
B4: Regulator of G protein signalling 9 (protein, UniProt O54828 1-675)
chain: MTIRHQGQQYRPRMAFLQKIEALVKDMQNPETGVRMHNQRVLVTSVPHAMTGGDVLQWITQRLWISNLEAQNLGNFIVKYGYIYPLQDPKNLILKPDSSLYRFQTPYFWPTQQWPAEDTDYAIYLAKRNIKKKGILEEYEKENYDFLNKKINYKWDFVIMQAKEQYRTGKERNKADRYALDCQEKAYWLVHRSPPGMNNVLDYGLDRVTNPNEVKKQTVTAVRKEIMYYQQALMRSTVKSSVSLGGIVKYSEQFSSNDAIMSGCLPSNPWITDDTQFWDLNAKLVEIPTKMRVERWAFNFSELIRDPKGRQSFQYFLKKEFSGENLGFWEACEDLKYGDQSKVKEKAEEIYKLFLAPGARRWINIDGKTMDITVKGLRHPHRYVLDAAQTHIYMLMKKDSYARYLKSPIYKEMLAKAIEPQETTKRSSTLPFMRRHLRSSPSPVILRQLEEEEKAREAANTVDITQPGQHLAPSPHLAVYTGTCVPPSPSSPFSPSCRSPRKPFASPSRFIRRPSIAICPSPSRVALEGSSGLEPKGEASWSGANSGPSVTENREPSADHSRPQPRAPPKARAALSLGRFLRRGCLASPVFARLSPKCPSVSHGKVQPLGDMGQQLPRLKPKKVANFFQIKMEMPTDSGTCLMDSDDPRAGESGDQTTEKEVICPWESLAEGKAG
B5: Phosphodiesterase 6C (enzyme, UniProt Q91ZQ1 1-861)
chain: MGEISQEAVERYLEKNPCFAKEYFDKKLRVEALGVIFKNSHAGVQTGLSLPEMTQVEESAVCLELLQCMQDEAGSAEQMAHRALQRLAQLLQADCCSMFSCRARNGIPEVASRLLNVTPTSKFEDNLVAPDREVVFPLDIGIVGWVAHVKKALNVSDVKKNSHFSDFMDKQTGYVTRNLLAVPIVAGKEVLAVVMAVNKISAPEFSKQDEEVFSKYLSFVAVALRLQHTSYLYSVESRRSQILMWSANKVFEELTDVERQFHKALYTIRTYLNCDRYSIGLLDMTKEKEFYDEWPIKLGEVEPYKGPKTPDGREIIFYKIIDYILHGKEEINVIPSPPADHWTLVSGLPTYVAENGFICNMLNAPADEYFTFQKGPVDETGWVIKNVLSLPIVNKKEDIVGVATFYNRKDGKPFDEHDEHITETLTQFLGWSLLNTDTYERVNKLESRKDIAQEMVMNLTKATPDEISSILKFKEKLNVEVIEECEERQLLAILKEDLPDPRTADLYEFCFSDFPITEHELVKCGLRLFLEINVVEKFKVPVEVLTRWMYTVRKGYRPVTYHNWRHGFNVGQTMFTLLMTGRLKKYYTDLEAFAMLAAAFCHDIDHRGTNNLYQMKSTSPLARLHGTSILERHHLEYSKTLLQDESLNIFQNLNKRQFETVIHLFEVAIIATDLALYFKKRTMFQKIVDTCEQMQSEEETIKYVTSDPTKKEVIMAMMMTACDLSAITKPWEVQSQVALLVANEFWEQGDLERTVLQQQPIPMMDRSKKDELPKLQVGFIDFVCTFVYKEFSRFHGEITPMLNGLQNNRVEWKSLAEEYEAKVKVTEEEAGKQEEEASDGKAATDLGGSAEDKKSKTCLML

No constants are given. Whether binding was seen depends on the method and setting. Binding seen in cells or lysates may run through a third protein. A yes stands for co-enrichment or nearness to the bait. Other partners may have been found. Tags and fused reporters may be left off the sequences shown.

This assay has as its target T1, USP48 (endogenous retinal USP48) (mouse (endogenous in retina)). The assay is described as follows: affinity purification with mass spectrometry; non-denaturing immunoprecipitation of endogenous USP48 from lysates of twelve mouse retinas with anti-USP48 (ab72226), Protein G Sepharose, lysis buffer 50 mM TrisHCl pH 7.5, 1 mM EDTA, 150 mM NaCl, 0.5% Nonidet P-40; eluate by LC-MS/MS; proteins also present in the anti-GFP control sample ….
For the molecule B1, the binding entry was “binds”.
To B2 belongs “binds”.
For B3, the binding entry is recorded as “binds”.
As for B4, the binding entry was “binds”.
B5: the binding entry is “binds”.
